Reference: the supplement of paper PMC12595434, “Development of retinoid nuclear receptor pathway antagonists through targeting aldehyde dehydrogenase 1A3” (iScience, 2025)
Some of the results follow. This is a noisy data set.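 Tm was set to 64 °C where no melting was found, and many curves are irregular.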

Sequences of proteins named here, by UniProt entry; tags and fusion partners are left off. A change or cut given only in a name is not applied to a line headed by its entry.
UniProt P05386, whole entry: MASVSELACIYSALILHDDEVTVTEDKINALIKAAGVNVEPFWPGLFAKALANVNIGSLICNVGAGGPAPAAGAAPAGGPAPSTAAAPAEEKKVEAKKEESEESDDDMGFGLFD
UniProt P04632: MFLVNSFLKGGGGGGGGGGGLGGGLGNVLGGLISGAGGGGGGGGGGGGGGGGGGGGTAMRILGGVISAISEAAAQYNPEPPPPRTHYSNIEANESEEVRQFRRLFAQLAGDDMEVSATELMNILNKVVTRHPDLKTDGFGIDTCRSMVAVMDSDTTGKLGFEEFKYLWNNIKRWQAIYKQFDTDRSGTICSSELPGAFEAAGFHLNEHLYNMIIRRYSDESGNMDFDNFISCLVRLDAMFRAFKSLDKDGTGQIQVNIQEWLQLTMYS
UniProt O95926: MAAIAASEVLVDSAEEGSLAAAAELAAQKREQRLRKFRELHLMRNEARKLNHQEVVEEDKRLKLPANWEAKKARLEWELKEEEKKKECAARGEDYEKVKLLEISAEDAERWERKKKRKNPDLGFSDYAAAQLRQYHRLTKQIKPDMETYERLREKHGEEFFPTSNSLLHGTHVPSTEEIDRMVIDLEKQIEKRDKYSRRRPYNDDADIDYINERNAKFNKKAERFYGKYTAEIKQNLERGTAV
UniProt O96007: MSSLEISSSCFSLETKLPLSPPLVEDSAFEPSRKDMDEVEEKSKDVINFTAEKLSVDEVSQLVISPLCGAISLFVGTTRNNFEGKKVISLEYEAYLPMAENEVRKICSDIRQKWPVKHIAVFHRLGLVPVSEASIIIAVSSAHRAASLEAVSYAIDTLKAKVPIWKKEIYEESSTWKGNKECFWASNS
UniProt O95865: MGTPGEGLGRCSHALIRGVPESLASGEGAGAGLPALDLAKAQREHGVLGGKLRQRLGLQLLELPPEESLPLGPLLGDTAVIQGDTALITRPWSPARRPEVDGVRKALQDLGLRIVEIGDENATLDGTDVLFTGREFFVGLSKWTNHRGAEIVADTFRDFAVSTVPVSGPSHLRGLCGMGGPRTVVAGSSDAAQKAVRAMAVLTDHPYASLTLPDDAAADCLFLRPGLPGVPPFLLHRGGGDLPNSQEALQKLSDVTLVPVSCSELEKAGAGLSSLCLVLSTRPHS
UniProt O96008: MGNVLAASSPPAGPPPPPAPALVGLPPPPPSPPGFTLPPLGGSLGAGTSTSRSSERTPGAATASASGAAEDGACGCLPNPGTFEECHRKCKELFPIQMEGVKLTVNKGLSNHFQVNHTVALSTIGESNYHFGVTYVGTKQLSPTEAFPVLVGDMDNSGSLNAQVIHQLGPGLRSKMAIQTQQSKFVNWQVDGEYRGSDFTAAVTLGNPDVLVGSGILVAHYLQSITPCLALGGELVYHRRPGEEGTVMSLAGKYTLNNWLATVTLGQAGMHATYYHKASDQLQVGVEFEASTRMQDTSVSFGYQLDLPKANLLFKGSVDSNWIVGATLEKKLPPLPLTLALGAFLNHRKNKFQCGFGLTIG
UniProt O75907: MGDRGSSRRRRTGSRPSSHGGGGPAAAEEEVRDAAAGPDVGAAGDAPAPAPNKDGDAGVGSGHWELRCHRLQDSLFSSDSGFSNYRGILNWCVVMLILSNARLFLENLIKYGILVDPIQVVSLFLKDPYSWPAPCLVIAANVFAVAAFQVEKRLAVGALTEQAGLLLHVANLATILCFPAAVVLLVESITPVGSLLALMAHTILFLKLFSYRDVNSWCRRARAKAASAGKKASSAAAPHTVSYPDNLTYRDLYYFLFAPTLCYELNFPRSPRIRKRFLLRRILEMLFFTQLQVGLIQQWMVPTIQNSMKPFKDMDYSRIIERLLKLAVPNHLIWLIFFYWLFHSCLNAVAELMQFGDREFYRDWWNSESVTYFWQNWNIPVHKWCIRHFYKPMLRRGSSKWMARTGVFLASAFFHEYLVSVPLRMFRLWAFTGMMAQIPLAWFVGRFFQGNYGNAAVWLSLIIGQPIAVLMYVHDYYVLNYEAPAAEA
UniProt O94966: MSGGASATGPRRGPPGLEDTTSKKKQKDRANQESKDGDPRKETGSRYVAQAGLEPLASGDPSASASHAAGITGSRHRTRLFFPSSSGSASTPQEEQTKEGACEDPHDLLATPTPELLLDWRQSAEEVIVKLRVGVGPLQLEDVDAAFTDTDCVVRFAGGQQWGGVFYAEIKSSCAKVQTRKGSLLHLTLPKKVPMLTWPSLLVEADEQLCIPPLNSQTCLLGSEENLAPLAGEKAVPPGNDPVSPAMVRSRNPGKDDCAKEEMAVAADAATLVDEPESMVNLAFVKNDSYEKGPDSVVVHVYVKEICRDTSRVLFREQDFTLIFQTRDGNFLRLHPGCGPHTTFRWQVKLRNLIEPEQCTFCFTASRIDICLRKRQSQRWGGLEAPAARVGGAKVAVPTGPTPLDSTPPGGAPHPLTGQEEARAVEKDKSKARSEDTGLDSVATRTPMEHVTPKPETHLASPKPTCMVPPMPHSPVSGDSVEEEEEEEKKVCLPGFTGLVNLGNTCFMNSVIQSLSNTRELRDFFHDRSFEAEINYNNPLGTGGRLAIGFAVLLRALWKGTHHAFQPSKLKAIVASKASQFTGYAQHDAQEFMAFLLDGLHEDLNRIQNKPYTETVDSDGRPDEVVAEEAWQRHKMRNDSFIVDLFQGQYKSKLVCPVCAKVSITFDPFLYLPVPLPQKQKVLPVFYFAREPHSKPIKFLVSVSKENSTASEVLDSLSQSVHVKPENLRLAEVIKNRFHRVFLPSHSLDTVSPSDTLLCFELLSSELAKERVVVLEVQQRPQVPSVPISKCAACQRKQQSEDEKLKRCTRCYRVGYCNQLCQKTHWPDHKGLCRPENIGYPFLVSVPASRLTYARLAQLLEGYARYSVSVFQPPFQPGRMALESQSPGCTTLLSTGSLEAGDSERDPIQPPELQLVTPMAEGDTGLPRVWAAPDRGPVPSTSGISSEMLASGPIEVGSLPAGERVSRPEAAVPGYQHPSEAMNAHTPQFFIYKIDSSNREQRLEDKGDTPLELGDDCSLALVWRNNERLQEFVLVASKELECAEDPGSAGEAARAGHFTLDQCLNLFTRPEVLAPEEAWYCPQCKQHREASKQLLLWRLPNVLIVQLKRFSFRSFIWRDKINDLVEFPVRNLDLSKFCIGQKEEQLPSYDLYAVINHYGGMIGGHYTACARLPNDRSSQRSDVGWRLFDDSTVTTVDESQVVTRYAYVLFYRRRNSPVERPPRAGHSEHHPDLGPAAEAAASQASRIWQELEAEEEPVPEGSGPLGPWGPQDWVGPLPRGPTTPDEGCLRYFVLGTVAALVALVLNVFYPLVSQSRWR
UniProt O95870: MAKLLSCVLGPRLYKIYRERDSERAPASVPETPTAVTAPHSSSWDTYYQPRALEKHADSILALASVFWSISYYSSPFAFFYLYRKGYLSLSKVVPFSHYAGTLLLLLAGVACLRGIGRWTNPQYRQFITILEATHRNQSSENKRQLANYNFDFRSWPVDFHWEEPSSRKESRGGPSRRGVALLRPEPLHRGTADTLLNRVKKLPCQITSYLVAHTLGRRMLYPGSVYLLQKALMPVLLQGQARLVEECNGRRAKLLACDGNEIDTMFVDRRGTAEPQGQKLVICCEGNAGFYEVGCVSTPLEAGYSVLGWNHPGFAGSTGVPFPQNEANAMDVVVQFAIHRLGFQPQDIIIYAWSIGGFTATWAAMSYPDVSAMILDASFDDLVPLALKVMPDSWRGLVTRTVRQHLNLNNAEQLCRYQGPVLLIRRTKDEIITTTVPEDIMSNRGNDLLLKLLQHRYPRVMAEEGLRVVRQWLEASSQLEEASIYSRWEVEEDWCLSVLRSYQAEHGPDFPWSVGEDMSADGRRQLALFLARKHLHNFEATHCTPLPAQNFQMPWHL
UniProt O95294: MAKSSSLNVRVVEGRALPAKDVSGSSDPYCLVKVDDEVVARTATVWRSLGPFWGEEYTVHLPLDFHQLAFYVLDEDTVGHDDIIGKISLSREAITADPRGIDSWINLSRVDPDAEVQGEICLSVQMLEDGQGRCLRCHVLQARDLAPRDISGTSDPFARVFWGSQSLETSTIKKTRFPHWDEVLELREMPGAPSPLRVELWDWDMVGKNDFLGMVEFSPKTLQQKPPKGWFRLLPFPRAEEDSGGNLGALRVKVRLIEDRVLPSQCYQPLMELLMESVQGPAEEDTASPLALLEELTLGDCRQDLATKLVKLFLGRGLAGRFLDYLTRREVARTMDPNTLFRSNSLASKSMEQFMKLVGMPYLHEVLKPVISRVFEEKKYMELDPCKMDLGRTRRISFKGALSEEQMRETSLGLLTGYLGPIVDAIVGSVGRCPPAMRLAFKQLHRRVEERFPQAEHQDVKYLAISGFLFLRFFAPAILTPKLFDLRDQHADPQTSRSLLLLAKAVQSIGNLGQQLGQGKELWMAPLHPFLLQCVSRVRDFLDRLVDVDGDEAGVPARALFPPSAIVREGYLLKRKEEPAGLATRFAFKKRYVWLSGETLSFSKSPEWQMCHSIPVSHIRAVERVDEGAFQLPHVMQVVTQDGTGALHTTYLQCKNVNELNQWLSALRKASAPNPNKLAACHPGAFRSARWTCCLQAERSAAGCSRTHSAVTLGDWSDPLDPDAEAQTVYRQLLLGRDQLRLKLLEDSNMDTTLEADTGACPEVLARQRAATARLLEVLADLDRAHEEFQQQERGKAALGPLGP
UniProt O95402: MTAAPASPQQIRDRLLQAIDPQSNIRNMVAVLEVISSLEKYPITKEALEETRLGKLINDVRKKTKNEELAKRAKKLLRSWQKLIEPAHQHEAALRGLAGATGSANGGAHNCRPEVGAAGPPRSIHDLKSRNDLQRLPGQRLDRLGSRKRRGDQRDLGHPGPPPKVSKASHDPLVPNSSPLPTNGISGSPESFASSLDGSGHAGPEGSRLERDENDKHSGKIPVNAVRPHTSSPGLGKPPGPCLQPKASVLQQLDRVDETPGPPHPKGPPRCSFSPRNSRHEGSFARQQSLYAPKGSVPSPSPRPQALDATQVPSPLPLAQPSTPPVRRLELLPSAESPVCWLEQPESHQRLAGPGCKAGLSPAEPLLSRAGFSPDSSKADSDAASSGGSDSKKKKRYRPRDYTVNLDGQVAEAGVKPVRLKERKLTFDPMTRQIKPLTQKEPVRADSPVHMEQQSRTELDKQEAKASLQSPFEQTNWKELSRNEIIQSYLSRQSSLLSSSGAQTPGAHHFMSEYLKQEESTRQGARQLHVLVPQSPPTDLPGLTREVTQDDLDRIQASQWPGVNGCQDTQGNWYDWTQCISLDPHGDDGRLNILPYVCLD
UniProt P00414, whole entry: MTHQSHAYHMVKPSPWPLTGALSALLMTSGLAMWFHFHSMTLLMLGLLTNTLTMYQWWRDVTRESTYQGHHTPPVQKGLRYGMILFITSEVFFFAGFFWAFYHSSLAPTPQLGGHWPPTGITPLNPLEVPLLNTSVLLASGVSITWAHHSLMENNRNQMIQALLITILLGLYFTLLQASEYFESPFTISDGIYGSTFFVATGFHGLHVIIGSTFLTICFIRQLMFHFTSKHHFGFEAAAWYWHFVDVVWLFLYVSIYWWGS
UniProt O76041: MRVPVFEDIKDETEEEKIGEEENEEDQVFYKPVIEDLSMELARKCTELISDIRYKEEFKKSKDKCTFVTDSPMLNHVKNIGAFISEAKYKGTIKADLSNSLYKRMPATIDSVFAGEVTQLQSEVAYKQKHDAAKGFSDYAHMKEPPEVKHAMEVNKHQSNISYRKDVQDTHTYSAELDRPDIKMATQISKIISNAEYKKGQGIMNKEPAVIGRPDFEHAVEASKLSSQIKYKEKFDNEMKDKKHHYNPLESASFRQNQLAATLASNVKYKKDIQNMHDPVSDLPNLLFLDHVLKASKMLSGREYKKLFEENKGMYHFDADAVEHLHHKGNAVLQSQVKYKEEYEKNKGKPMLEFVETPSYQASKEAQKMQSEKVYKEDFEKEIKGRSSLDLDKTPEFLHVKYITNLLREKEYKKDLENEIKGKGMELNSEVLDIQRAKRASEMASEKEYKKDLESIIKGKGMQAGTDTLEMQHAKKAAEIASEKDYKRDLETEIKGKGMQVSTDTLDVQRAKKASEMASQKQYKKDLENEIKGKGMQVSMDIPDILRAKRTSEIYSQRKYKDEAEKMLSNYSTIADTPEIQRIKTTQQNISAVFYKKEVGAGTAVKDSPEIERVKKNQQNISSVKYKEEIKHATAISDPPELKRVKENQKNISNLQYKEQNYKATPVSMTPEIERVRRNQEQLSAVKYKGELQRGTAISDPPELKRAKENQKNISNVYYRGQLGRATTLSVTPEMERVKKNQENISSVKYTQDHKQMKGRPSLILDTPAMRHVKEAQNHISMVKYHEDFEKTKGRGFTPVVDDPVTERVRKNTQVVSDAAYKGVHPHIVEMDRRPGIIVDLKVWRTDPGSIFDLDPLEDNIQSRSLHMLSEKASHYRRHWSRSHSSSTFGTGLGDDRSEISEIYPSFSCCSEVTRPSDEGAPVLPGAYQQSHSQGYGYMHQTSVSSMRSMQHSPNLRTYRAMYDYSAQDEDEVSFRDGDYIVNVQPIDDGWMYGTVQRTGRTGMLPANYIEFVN

Compound: CCc1cnccc1C(=O)Nc1cc2c(cc1F)NC(=O)CC2
Test: melting temperature shift (DMSO Tm minus MBE1-treated Tm) in cellular thermal proteome profiling; higher = less thermal stabilization by MBE1 (negative = stabilized by MBE1)
Settings: A375

| Target | melting temperature shift (MBE1 concentration: 100 nM) [°C] | melting temperature shift (MBE1 concentration: 1 uM) [°C] |
| --- | --- | --- |
| SEC24D (UniProt O94855) | 0.812 | 0.977 |
| RPLP1 (UniProt P05386) | 0.385 | -0.537 |
| CAPNS1 (UniProt P04632) | -1.04 | -1.17 |
| NDUFB6 (UniProt O95139) | 1 | -1.97 |
| UniProt O95644 | 3.77 |  |
| UniProt O94832 | 0.488 | -0.843 |
| TFRC (UniProt P02786) |  | -0.523 |
| KIF20A (UniProt O95235) | -0.397 | -0.205 |
| SYF2 (UniProt O95926) | -1.39 |  |
| UniProt O94818 | -1.17 |  |
| UniProt P00918 | -5.03 | 1.21 |
| UniProt O95568 | -0.0329 |  |
| UniProt O96007 | -6.46 | 0.976 |
| DDAH2 (UniProt O95865) | -0.336 | 0.121 |
| TOMM40 (UniProt O96008) |  | 0.871 |
| DGAT1 (UniProt O75907) | -1.33 | 0.928 |
| SEC24A (UniProt O95486) | 0.299 | -0.0122 |
| UniProt P05106 |  | -1.46 |
| UniProt P02751 | -0.731 | 1.4 |
| USP19 (UniProt O94966) | 0.586 | -0.0733 |
| FYN (UniProt P06241) | -1.77 |  |
| ABHD16A (UniProt O95870) | -3.96 | -2.23 |
| UniProt O95294 | 0.0305 |  |
| UniProt O95402 | -1.63 | -1.25 |
| STAMBP (UniProt O95630) | -0.579 | -0.386 |
| UniProt P00414 | 0.496 | -2.35 |
| UniProt O76041 | 2.45 | -3.48 |
| FARP2 (UniProt O94887) |  | -0.275 |
| LYPLA2 (UniProt O95372) | -0.409 | -0.487 |

Look-ups from the results shown.
melting temperature shift (MBE1 concentration: 1 uM) [°C], SEC24A (UniProt O95486) is entered as -0.0122
melting temperature shift (MBE1 concentration: 1 uM) [°C], UniProt P05106 is entered as -1.46
